# Reference: PubChem BioAssay AID588590 (National Center for Advancing Translational Sciences (NCATS), 2011)
# Chains of the proteins cited; added tags and fusions are not shown. Lines headed by an entry give the natural chain unless they say otherwise; changes in a name come on top.
# UniProt Q9UNA4: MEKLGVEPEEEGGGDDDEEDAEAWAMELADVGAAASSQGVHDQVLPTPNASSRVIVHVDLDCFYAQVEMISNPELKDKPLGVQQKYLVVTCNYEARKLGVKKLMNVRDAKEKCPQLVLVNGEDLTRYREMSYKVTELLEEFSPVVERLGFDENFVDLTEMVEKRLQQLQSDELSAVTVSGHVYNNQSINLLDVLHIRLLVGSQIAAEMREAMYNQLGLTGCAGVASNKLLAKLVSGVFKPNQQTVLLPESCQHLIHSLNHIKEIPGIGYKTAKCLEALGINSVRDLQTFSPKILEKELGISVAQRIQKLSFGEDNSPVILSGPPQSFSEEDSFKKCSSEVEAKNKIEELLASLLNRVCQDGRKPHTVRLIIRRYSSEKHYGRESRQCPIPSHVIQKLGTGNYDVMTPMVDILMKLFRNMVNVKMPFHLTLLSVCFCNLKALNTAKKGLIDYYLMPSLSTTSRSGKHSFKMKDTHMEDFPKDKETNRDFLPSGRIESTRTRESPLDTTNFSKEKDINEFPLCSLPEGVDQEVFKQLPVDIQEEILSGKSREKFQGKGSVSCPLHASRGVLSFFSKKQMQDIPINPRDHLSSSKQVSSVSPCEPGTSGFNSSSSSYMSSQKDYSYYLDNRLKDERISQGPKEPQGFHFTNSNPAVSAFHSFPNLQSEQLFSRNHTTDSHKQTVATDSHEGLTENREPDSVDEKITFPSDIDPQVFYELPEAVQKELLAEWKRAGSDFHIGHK
# Among all 390,000 compounds or so, about 4,000 (1%) were called active. Inconclusive means that the source gave no clear call. Such entries were picked first, then a sample of the others. Calls follow the shape of the dose curve; as a rule, active = well fitted inhibition curve with a large enough effect; inconclusive = small, poorly fitted or top-dose-only effect, or another doubt; inactive = no such curve, though single readings can be large or run the other way. Where the call is inconclusive, the potency comes from a doubtful curve fit.
# Target: DNA polymerase iota (Homo sapiens) (UniProt Q9UNA4)
# Experiment: qHTS for Inhibitors of Polymerase Iota
# Conditions: Pol iota fluorescent replication assay, 10 min; series mostly up to 115 µM; activity, negative = inhibition: at the top concentration
# Procedure, shortened: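 Pol iota at 10 nM preincubated 15 min with compounds at room temperature; reaction started with fluorescent substrate, 50 nM final. Fluorescence read kinetically at 0 and 10 min; buffer-only wells as negative control.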
# Potency is read from the fitted curve at half-maximal effect.
Structure (SMILES),Potency,"activity, negative = inhibition"
O=c1c2sc3ccccc3c2n(Cc2ccccc2)c(=O)n1CCc1ccccc1,"inconclusive: 79.4 µM [inhibitor, partial curve]",
Cc1cc(C)c2c(=O)[nH]c(SCC(=O)Nc3ccc(Br)cc3)nc2n1,"inconclusive: 28.2 µM [inhibitor, full curve]",
CCCCCn1cc2c(c1-c1ccccc1Br)c(=O)n(C)c(=O)n2C,,inactive: -17.9%
Cc1ccc(-n2nc3ccc(NC(=S)NC(=O)/C=C/c4ccco4)cc3n2)cc1,,inactive: 14%
CCCCn1c(N)c(N(CCC(C)C)C(=O)COC(=O)c2ccc([N+](=O)[O-])s2)c(=O)[nH]c1=O,active: 79.4 µM,
CCOC(=O)C1=C(C)N(CCCC(=O)O)C(=O)NC1c1ccc(Cl)cc1Cl (stereo not drawn),,inactive: 31.6%
CCOc1ccc2ncc3c(-c4cccc(OC)c4)nn(-c4ccccc4)c3c2c1,,inactive: -21.9%
Cc1cc(C(F)(F)F)nn1CC(=O)NCc1cccs1,,inactive: 17.5%
Fc1cnc(Cl)nc1NC1CCCCC1,"inconclusive: 12.6 µM [inhibitor, single point]",
COc1ccc(C(c2nnnn2CC2CCCO2)N2CCN(c3cccc(C)c3C)CC2)cc1 (stereo not drawn),"inconclusive: 2.82 µM [inhibitor, full curve, poor fit]",
CCOc1ccccc1C(=O)N/N=C/c1coc2ccc(C)cc2c1=O,"inconclusive: 15.8 µM [inhibitor, single point]",
COc1ccccc1CNC(=O)CCCCn1c(=O)c2ccccc2n(Cc2ccccc2C)c1=O,"inconclusive: 4.47 µM [inhibitor, full curve, poor fit]",
CC(C)(C)C1CCc2c(sc(NC(=O)c3ccccc3F)c2C(=O)NCc2ccco2)C1 (stereo not drawn),"inconclusive: 100 µM [inhibitor, single point]",
COC(=O)c1c(C)[nH]c(C)c1-c1ccc(C)cc1,"inconclusive: 11.2 µM [inhibitor, full curve, poor fit]",
O=C(NCCn1cc(SCc2ccccc2)c2ccccc21)c1cccs1,active: 89.1 µM,
COc1ccc(C(=O)CC(=O)C(=O)Nc2ccc(Cl)cc2)cc1,"inconclusive: 10 µM [inhibitor, partial curve, poor fit]",
COc1ccc(-c2nc3scc(CCNS(=O)(=O)c4c(C)cc(C)cc4C)n3n2)cc1OC,"inconclusive: 100 µM [inhibitor, single point]",
O=C(Nc1ccc(Cl)cc1C(=O)O)c1ccc2c(c1)C(=O)N(Cc1ccco1)C2=O,active: 35.5 µM,
Cc1ccc(/C=C/C(=O)c2c(C)cc(C)[nH]c2=O)cc1,"inconclusive: 22.4 µM [inhibitor, full curve, poor fit]",
O=C(COC(=O)c1cc2ccccc2oc1=O)Nc1ccc(F)cc1F,"inconclusive: 79.4 µM [inhibitor, single point]",
CC(=O)Nc1ccc(NC(=O)c2nccnc2C(=O)O)cn1,"inconclusive: 11.2 µM [inhibitor, single point]",
Cc1cc(N2CCOCC2)ccc1/C=C1\NC(=O)N(CC(=O)Nc2ccc(F)cc2)C1=O,"inconclusive: 89.1 µM [inhibitor, single point]",
Cc1nn(C)cc1S(=O)(=O)N1CCCCC1C (stereo not drawn),,inactive: 34.7%

# Some of the entries above, reformatted:
Structure (SMILES)	Potency	activity, negative = inhibition
Cc1cc(C)c2c(=O)[nH]c(SCC(=O)Nc3ccc(Br)cc3)nc2n1	inconclusive: 28.2 µM [inhibitor, full curve]	
CCCCCn1cc2c(c1-c1ccccc1Br)c(=O)n(C)c(=O)n2C		inactive: -17.9%
Cc1ccc(-n2nc3ccc(NC(=S)NC(=O)/C=C/c4ccco4)cc3n2)cc1		inactive: 14%
CCCCn1c(N)c(N(CCC(C)C)C(=O)COC(=O)c2ccc([N+](=O)[O-])s2)c(=O)[nH]c1=O	active: 79.4 µM	
CCOC(=O)C1=C(C)N(CCCC(=O)O)C(=O)NC1c1ccc(Cl)cc1Cl (stereo not drawn)		inactive: 31.6%
CCOc1ccc2ncc3c(-c4cccc(OC)c4)nn(-c4ccccc4)c3c2c1		inactive: -21.9%
Cc1cc(C(F)(F)F)nn1CC(=O)NCc1cccs1		inactive: 17.5%
Fc1cnc(Cl)nc1NC1CCCCC1	inconclusive: 12.6 µM [inhibitor, single point]	
COc1ccc(C(c2nnnn2CC2CCCO2)N2CCN(c3cccc(C)c3C)CC2)cc1 (stereo not drawn)	inconclusive: 2.82 µM [inhibitor, full curve, poor fit]	
CCOc1ccccc1C(=O)N/N=C/c1coc2ccc(C)cc2c1=O	inconclusive: 15.8 µM [inhibitor, single point]	
COc1ccccc1CNC(=O)CCCCn1c(=O)c2ccccc2n(Cc2ccccc2C)c1=O	inconclusive: 4.47 µM [inhibitor, full curve, poor fit]	
CC(C)(C)C1CCc2c(sc(NC(=O)c3ccccc3F)c2C(=O)NCc2ccco2)C1 (stereo not drawn)	inconclusive: 100 µM [inhibitor, single point]	
COC(=O)c1c(C)[nH]c(C)c1-c1ccc(C)cc1	inconclusive: 11.2 µM [inhibitor, full curve, poor fit]	
O=C(NCCn1cc(SCc2ccccc2)c2ccccc21)c1cccs1	active: 89.1 µM	
COc1ccc(C(=O)CC(=O)C(=O)Nc2ccc(Cl)cc2)cc1	inconclusive: 10 µM [inhibitor, partial curve, poor fit]	
COc1ccc(-c2nc3scc(CCNS(=O)(=O)c4c(C)cc(C)cc4C)n3n2)cc1OC	inconclusive: 100 µM [inhibitor, single point]	
O=C(Nc1ccc(Cl)cc1C(=O)O)c1ccc2c(c1)C(=O)N(Cc1ccco1)C2=O	active: 35.5 µM	
Cc1ccc(/C=C/C(=O)c2c(C)cc(C)[nH]c2=O)cc1	inconclusive: 22.4 µM [inhibitor, full curve, poor fit]	
O=C(COC(=O)c1cc2ccccc2oc1=O)Nc1ccc(F)cc1F	inconclusive: 79.4 µM [inhibitor, single point]	

# More compounds follow.

Structure (SMILES),Potency,"activity, negative = inhibition"
CCOc1ccc(Nc2nc3c(S(=O)(=O)c4ccc(CC)cc4)nnn3c3ccc(Cl)cc23)cc1,,inactive: 33%
CN(C)C1=NCCN1CC1CCCCC1,"inconclusive: 44.7 µM [inhibitor, partial curve, poor fit]",
COc1cc(NS(=O)(=O)c2ccc(Nc3nc(-c4ccccn4)cs3)cc2)nc(OC)n1,,inactive: 65.1%
O=C(c1cccc(S(=O)(=O)NCc2ccccc2)c1)N1CCN(c2ccccc2Cl)CC1,active: 89.1 µM,
COc1ccc(-c2nc(Cn3c(=O)cc(-c4ccccc4)c4c(C)nn(C)c43)c(C)o2)cc1OC,,inactive: -11.8%
Cc1cc(C)cc(NC(=O)C(CC(C)C)NC(=O)C2CCCCC2)c1 (stereo not drawn),,inactive: 16.2%
CN(C)c1ccc(C(=O)Nc2c(C(=O)NC(C)(C)C)oc3ccccc23)cc1,"inconclusive: 79.4 µM [inhibitor, partial curve, poor fit]",
CCc1ccccc1N1CC(c2nc3ccccc3n2CCOc2ccc(Cl)c(C)c2)CC1=O (stereo not drawn),,inactive: 10%
CC1=CN(S(=O)(=O)c2ccc(C)cc2)C[C@@H]2[C@H]3CC[C@H](C3)[C@H]12,"inconclusive: 79.4 µM [inhibitor, single point]",
CS(=O)(=O)C1=NSC2=NC(=O)/C(=C\c3cccn3-c3ccccc3Cl)C(=N)N21,"inconclusive: 22.4 µM [inhibitor, single point]",
c1ccc2cc(-c3cc4ccccn4c3)ccc2c1,"inconclusive: 25.1 µM [inhibitor, full curve, poor fit]",
COc1cccc(C(=O)Nc2cc(C(=O)NCc3ccc(C)cc3)ccc2N2CCC3(CC2)CC(c2cccc(Br)c2)=NO3)c1,"inconclusive: 22.4 µM [inhibitor, partial curve, poor fit]",
Cc1cc(O)c(C(=O)/C=C/c2ccccc2)c(=O)o1,"inconclusive: 20 µM [inhibitor, partial curve, poor fit]",
Cc1cc(O)c(Oc2cc(C)cc(O)c2O)c(O)c1,active: 39.8 µM,
Cc1nc([N+](=O)[O-])c(Br)n1CC(=O)c1ccccc1,"inconclusive: 44.7 µM [inhibitor, partial curve, poor fit]",
Cc1ccc2nc(-c3ccc(SCC(=O)Nc4ccc5c(c4)OCCO5)nc3)[nH]c2c1,"inconclusive: 15.8 µM [inhibitor, full curve, poor fit]",
CNc1nc(Nc2ccc(C)c(Cl)c2)nc(N)c1[N+](=O)[O-],"inconclusive: 25.1 µM [inhibitor, full curve, poor fit]",
C/C(N)=C(/C#N)C(=O)CSc1nnnn1-c1ccc(C)cc1C,"inconclusive: 25.1 µM [inhibitor, partial curve, poor fit]",
CC1CCc2nc3ccccc3c(C(=O)OCC(=O)N3CCc4ccccc43)c2C1 (stereo not drawn),"inconclusive: 70.8 µM [inhibitor, single point]",
CC(=O)CCc1oc2ccc([N+](=O)[O-])cc2c1-c1ccc(C)o1,"inconclusive: 89.1 µM [inhibitor, partial curve, poor fit]",
C=CCn1c(SCC(=O)Nc2ccc(F)cc2)nc2cc(C(=O)O)ccc2c1=O,,inactive: -5.89%
CCCCOc1ccc(/C=N/NC(=O)c2nnn(-c3nonc3N)c2CN2CCCCCC2)cc1,"inconclusive: 28.2 µM [inhibitor, partial curve, poor fit]",
CCCCOC(=O)CSC1=C(C#N)C(c2ccccc2OCC)C(C#N)C(=O)N1 (stereo not drawn),active: 79.4 µM,

Structure (SMILES),Potency,"activity, negative = inhibition"
NC(=O)c1c(NC(=O)C2CCCO2)sc2c1CCCCC2 (stereo not drawn),"inconclusive: 22.4 µM [inhibitor, full curve, poor fit]",
CCOc1ccc(OCC)c(NC(=O)CN(C)S(=O)(=O)c2cccc3nsnc23)c1,"inconclusive: 35.5 µM [inhibitor, partial curve, poor fit]",
CCOc1ccc(NC(=O)CSc2nc3c([nH]c4ccccc43)c(=O)n2-c2cc(C)cc(C)c2)cc1,,inactive: 25.3%
O=C(COc1cccc(Cl)c1)N1CCC(c2nc3ccccc3o2)CC1,,inactive: 3.8%
CCC(C)NC(=O)c1ccc2c(c1)nc1n2CCCCC1 (stereo not drawn),,inactive: -3.98%
COc1ccc(NC(=O)CSc2nc3c(oc4ccccc43)c(=O)n2-c2ccccc2)cc1OC,,inactive: 5.19%
Cc1cc(C(=O)OCC(=O)Nc2sc3c(c2C#N)CCC(C)C3)c2ccccc2n1 (stereo not drawn),active: 56.2 µM,
CCOC(=O)c1c(C)oc2c1cc(NS(=O)(=O)c1ccc(C)cc1)c1ccccc12,"inconclusive: 89.1 µM [inhibitor, single point]",
CCN1CCN(CC(=O)Nc2cc(C(F)(F)F)ccc2OCCOC)CC1,"inconclusive: 20 µM [inhibitor, single point]",
COc1ccc(Nc2ccc(Cl)cc2)c(C(=O)O)c1,,inactive: -17.7%
CCCCn1c(CCNC(=O)c2ccco2)nc2ccccc21,"inconclusive: 100 µM [inhibitor, single point]",
Cc1ccc(-c2csc(C(C#N)=C(O)CN3CCN(C(=O)c4ccco4)CC3)n2)cc1,"inconclusive: 50.1 µM [inhibitor, partial curve]",
Cc1cc(OCC(=O)Nc2sc3c(c2C#N)CCC(C)C3)ccc1Cl (stereo not drawn),"inconclusive: 89.1 µM [inhibitor, single point]",
CN(CC(=O)Nc1ccc(Cl)c(C(F)(F)F)c1)C(=O)c1cccs1,,inactive: 36.5%
O=C(Nc1ccccc1)Nc1cccc2ccccc12,,inactive: 14.2%
COc1ccccc1CNC(=O)c1cnccn1,"inconclusive: 14.1 µM [inhibitor, partial curve, poor fit]",
CCOC(=O)c1c(C)oc2nc(C)nc(N(C)Cc3ccccc3)c12,,inactive: 7.98%
CCCC(=O)Oc1ccc2[nH]c(C(=O)c3cc4ccccc4[nH]3)cc2c1,,inactive: 49.4%
O=c1ccc2c(-c3ccccc3S(=O)(=O)O)c3ccc(O)c(O)c3oc-2c1O,active: 1.12 µM,
O=C(NCCN1CCCC1)c1cc(-c2ccncc2)nc2ccc(S(=O)(=O)N3CCOCC3)cc12,"inconclusive: 35.5 µM [inhibitor, partial curve, poor fit]",
CCOc1ccc(CN2C(=O)c3ccccc3Sc3ccc(C(=O)NCCCN4CCOCC4)cc32)cc1,"inconclusive: 11.2 µM [inhibitor, partial curve, poor fit]",
O=C(CCC(=O)N/N=C/c1ccc(Br)o1)N/N=C/c1ccc(Br)o1,"inconclusive: 50.1 µM [inhibitor, partial curve]",
